No constants are given. Whether binding was seen depends on the method and setting. Some results given as binding are weak or reduced against the parent protein; the word gives no strength.

Sequences of proteins named here, by UniProt entry; tags and fusion partners are left off.
UniProt P36405: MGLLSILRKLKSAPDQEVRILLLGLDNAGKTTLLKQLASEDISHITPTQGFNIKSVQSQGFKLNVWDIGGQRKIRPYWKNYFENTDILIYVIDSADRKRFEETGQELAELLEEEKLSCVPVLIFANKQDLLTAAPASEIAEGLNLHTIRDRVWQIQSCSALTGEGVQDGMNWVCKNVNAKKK
UniProt P36404: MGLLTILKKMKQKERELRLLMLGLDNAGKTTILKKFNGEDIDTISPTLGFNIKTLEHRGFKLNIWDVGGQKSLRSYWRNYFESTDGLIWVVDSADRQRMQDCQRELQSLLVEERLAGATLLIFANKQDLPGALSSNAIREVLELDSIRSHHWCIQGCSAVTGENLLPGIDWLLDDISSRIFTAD

Assay [1] concerns the target Rheb (Ras homolog enriched in brain) (UniProt Q15382). The assay can be described thus: two-hybrid; quantitative lacZ read-out: diploid yeast with bait and prey grown on DO-2 with the β-galactosidase substrate ONPG, colorimetric; Deltazinone 1 or Deltasonamide 1 titrated, 7 h or 24 h; the interaction as measured without or below the effective compound concentration.
A further assay deals with T1, GRK1 (UniProt Q15835).
T1 sequence: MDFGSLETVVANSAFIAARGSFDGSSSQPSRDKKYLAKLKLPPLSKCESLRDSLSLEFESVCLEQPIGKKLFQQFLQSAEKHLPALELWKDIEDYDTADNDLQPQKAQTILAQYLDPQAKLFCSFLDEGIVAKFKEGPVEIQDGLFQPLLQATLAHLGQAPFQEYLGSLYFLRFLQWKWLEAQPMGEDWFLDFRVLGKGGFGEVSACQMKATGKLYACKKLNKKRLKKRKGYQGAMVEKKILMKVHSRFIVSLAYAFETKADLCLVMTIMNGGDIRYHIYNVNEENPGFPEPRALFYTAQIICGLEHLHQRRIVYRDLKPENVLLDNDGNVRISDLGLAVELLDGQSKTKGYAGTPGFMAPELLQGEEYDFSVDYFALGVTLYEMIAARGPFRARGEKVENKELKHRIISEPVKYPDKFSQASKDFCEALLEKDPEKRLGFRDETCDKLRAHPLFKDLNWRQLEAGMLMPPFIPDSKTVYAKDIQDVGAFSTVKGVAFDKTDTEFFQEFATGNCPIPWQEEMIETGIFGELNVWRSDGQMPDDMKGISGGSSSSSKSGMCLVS
Described as above.

The target of a further assay is T2, INPP5E (UniProt Q9NRR6).
T2 sequence: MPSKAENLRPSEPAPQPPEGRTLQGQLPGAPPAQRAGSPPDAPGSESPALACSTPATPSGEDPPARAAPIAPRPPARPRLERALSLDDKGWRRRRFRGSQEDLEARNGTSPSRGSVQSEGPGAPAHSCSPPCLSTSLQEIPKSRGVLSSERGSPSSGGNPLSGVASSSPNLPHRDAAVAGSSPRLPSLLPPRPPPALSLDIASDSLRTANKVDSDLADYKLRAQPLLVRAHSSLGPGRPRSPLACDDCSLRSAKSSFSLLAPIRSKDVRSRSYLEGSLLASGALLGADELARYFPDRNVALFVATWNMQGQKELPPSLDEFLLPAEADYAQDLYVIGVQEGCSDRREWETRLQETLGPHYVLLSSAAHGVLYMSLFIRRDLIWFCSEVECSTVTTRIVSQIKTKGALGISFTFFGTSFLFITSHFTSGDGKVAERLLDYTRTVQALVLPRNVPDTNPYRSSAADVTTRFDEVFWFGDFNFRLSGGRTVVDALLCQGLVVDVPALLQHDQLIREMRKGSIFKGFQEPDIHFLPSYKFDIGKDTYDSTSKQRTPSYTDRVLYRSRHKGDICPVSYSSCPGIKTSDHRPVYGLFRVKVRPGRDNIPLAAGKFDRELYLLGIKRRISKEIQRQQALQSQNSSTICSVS
Described as above.

Another assay concerns the target Arl3 (Arf-like GTPase) (UniProt P36405). The assay is described as above.
In a further assay the target is Arl2 (Arf-like GTPase) (UniProt P36404). The description is as above.
Assay [2] addresses Rheb (Ras homolog enriched in brain) (UniProt Q15382). The assay can be described thus: condition: only with Deltazinone 1 (5 μM highest concentration) or Deltasonamide 1 (20 μM highest concentration); two-hybrid; quantitative lacZ read-out (ONPG, DO-2 medium) in the presence of the PDEδ inhibitors Deltazinone 1 (5 μM highest concentration) or Deltasonamide 1 (20 μM highest concentration), 7 h or 24 h.

For assay [3] the target is unchanged. The assay can be described thus: two-hybrid; LexA DNA-binding domain baits (pB27) and Gal4 Activation Domain prey (pP7) in diploid yeast; growth on DO-3 medium (lacking tryptophan, leucine, histidine) and blue colonies on DO-2 medium with X-gal.

Take “PDEδ (Phosphodiesterase 6δ) (from UniProt O43924 1-150)”: the binding result is recorded as “binds” in assay [1]; “binds” with GRK1; “binds” with INPP5E; “binds” in the assay with Arl3 (Arf-like GTPase); “binds” with Arl2 (Arf-like GTPase); “no binding” in assay [2]. Moreover, in assay [3], the binding entry is “binds”.
